{"source": "patent US20020137785A1", "about": "“Inflammatory mechanism modulator composition and methods with anti-asthmatic properties” (priority 2001, published 2002)", "origin": "cited, not measured here", "molecular_target": "T1, COX-2 (Mus musculus, UniProt Q05769)", "T1 construct": "cyclooxygenase 2 and interleukin-1 alpha expression in SENCAR mouse epidermis; host or cells: SENCAR mouse epidermis (in vivo, TPA-treated)", "T1 sequence (Q05769 18-604)": "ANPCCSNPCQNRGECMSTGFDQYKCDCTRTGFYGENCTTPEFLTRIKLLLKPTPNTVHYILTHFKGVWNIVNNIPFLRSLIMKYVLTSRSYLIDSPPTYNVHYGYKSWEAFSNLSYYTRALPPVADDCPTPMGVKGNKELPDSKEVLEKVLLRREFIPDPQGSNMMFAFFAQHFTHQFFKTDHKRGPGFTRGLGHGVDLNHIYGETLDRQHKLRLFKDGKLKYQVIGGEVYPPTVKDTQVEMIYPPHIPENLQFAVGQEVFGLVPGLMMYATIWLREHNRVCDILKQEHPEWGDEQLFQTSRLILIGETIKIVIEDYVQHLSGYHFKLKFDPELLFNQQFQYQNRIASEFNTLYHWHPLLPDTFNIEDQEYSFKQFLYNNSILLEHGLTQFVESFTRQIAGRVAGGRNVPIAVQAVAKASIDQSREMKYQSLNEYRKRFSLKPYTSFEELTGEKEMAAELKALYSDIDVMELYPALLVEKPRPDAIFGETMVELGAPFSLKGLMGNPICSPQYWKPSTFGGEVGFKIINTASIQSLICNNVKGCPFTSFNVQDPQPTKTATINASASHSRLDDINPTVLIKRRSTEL", "conditions": "Zhao et al 1999, SENCAR mouse epidermis", "note": "At least one structure is not confirmed: it was looked up by name or label, or the drawing left a doubt."}
{"smiles": "COc1cc(C2Oc3cc([C@H]4Oc5cc(O)cc(O)c5C(=O)[C@@H]4O)ccc3OC2CO)ccc1O", "note": "(stereo partly shown) [silybinin]", "values": [{"measurement": "COX-2 inhibition relative to COX-1 inhibition", "value": "significant COX-2 inhibition"}]}
